Experiment: GC-MS metabolite profiling of apoplastic fluid from NbSQS silenced and control plants
Details: level in apoplastic fluid, SQS silenced vs control N. benthamiana

Row | Compound | Ratio (SQS/Control)
1 | OC[C@H]1O[C@H](O[C@H]2[C@H](O)[C@@H](O)C(O)O[C@@H]2CO)[C@H](O)[C@@H](O)[C@@H]1O (mixture of isomers) [Maltose] | 10.37
2 | O[C@@H]1[C@@H](O)[C@@H]2OC[C@@H](O2)[C@H]1O [1,6-Anhydroglucose] | 2.986
3 | O=C(O)C(O)C(O)C(=O)O (centres unmarked) [2,3-Dihydroxybutanedioic acid] | 6.185
4 | O=C[C@H](O)[C@@H](O)[C@H](O)[C@H](O)CO [D-(+)-Glucose] | 8.344
5 | O=C(CO)[C@@H](O)[C@H](O)[C@H](O)CO [D-(−)-Fructose] | 4.982
6 | OC[C@@H](O)[C@@H](O)CO [Erythritol] | 3.258
7 | OCC(O)CO [Glycerol] | 1.968
8 | O=C(O)CC(=O)O [Malonic Acid] | 3.1365
9 | CN1CCCC1c1cccnc1 (centres unmarked) [Nicotine] | 5.367
10 | O=C(O)C(O)CO (centres unmarked) [Propionic Acid, 2,3 Hydroxy] | 5.181
11 | NCCCCN [Putrescine] | 8.56
12 | O=C1CCCN1 [Pyrrolidinone] | 6.372
13 | O=C[C@H](O)[C@H](O)[C@H](O)CO [Ribose] | 7.348
14 | O=C(CO)[C@H](O)[C@@H](O)[C@H](O)CO [Sorbose] | 4.319
15 | OC[C@@H](O)[C@H](O)[C@@H](O)CO [Xylitol] | 6.868
16 | O=C[C@H](O)[C@@H](O)[C@H](O)CO [Xylose] | 3.702
17 | Maltotriose | 6.467

Reference: patent US20090138988A1, “MODIFICATION OF PLANT DISEASE RESISTANCE” (priority 2007, published 2009)
